For 38 molecules, cell number change and AC50 results are on record in PubChem BioAssay AID2685 (National Center for Advancing Translational Sciences (NCATS), 2010).

The experiment is described as follows: qHTS Assay for Lipid Storage Modulators in Drosophila S3 Cells.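 As to cell number change: cells counted by Cell Tracker Red CMTPX staining in the red channel.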 The following applies: BODIPY lipid droplet fluorescence, 18-24 h; for cell number change: measured here: cell count max response, cells fed with added oleic acid. The gist of the method: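 Drosophila S3 cells got compounds at several concentrations plus oleic acid (400 uM solution). Laser-scanning cytometry with 488 nm excitation read lipid droplets at 500-530 nm and cells at 575-640 nm. Percent activity was relative to 20 uM Triacsin C.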
In general terms: Quantitative high-throughput screening tests each substance at several concentrations.

Where [1] appears, read: measured here: lipid fluorescence (Fed channel) AC50, cells fed with added oleic acid.
Where [2] appears, read: measured here: cell number channel AC50, cells fed with added oleic acid.

The other results are listed elsewhere or left out. The main result of the screen is listed elsewhere. These columns were measured beside it and carry no call. The list favours compounds with an active or inconclusive main result. Potencies come from curve fits of mixed quality, noted in brackets.

The term AC50 denotes the concentration giving half of the maximal activity seen. A higher AC50 goes with activity only at high concentration.

For the molecule `O=C(COC(=O)c1ccc([N+](=O)[O-])o1)Nc1cccc2ccccc12`, the cell number change worked out at 26.8%.
For `Cc1cc(C)c(C)c(OCC(=O)N2CCN(c3ccccn3)CC2)c1`, the cell number change was determined as 25.5%.
Take `CCC(C)(C)C1CCc2c(sc(NC(=O)c3cccs3)c2C(N)=O)C1` (stereo not drawn): the cell number change is 27.5%. The AC50 under setting [1] is 6.51 µM [rising, single point].
`COc1ccc(CCNC(=O)c2sc3ccccc3c2Cl)cc1OC`: the cell number change was -13.4%. The AC50 under setting [1] is 23.1 µM [falling, single point].
For the molecule `CCOC(=O)c1c(N)sc2c1CCC(C)C2` (stereo not drawn), the cell number change was -34.1%. For the same molecule, the AC50 under setting [2] is 13 µM [falling, partial curve]. Also, the half-maximal activity concentration (AC50) under setting [1] was 18.4 µM [falling, single point].
Consider `Cc1ccc(NC(=O)Nc2nnc(Cc3ccc([N+](=O)[O-])cc3)s2)cc1C`, for which the cell number change is -31.8%. Besides, the AC50 under setting [2] was 7.31 µM [falling, partial curve]. The AC50 under setting [1] is 8.2 µM [falling, partial curve, poor fit].
`CCOc1ccc(NS(=O)(=O)c2ccc(C(=O)N3CC(C)OC(C)C3)cc2)cc1` (stereo not drawn): the AC50 under setting [1] is 23.1 µM [falling, partial curve].
For the molecule `COc1ccc(C(=O)NCCn2ccc3ccccc32)c(OC)c1`, the AC50 under setting [2] is 4.11 µM [falling, single point].
Turning to `O=C(NCc1ccccc1CN1CCCCC1)c1ccccc1N1CCCC1=O`, the cell number change is 10.7%. Moreover, under setting [2], the AC50 is 6.51 µM [rising, single point]. For the same molecule, the AC50 under setting [1] was 6.51 µM [rising, single point].
Turning to `O=C(CSc1nnc2ccccn12)NCc1cccs1`, the cell number change was 36.1%. Also, under setting [2], the AC50 is 29.1 µM [rising, single point]. Further, under setting [1], the AC50 was 1.03 µM [rising, partial curve, poor fit].
For `COc1cc(/C=N/NC(=O)c2ccncc2)ccc1OC(=O)c1ccco1`, the cell number change is -10.3%. Moreover, the AC50 under setting [1] was 29.1 µM [rising, single point].
Regarding `COc1ccc(C2CC(O)(c3ccccc3)Oc3cc(OC)c(OC)c(OC)c32)cc1` (stereo not drawn), the cell number change was -10.4%. In addition, under setting [1], the AC50 was 11.6 µM [falling, partial curve, poor fit].
As for `O=C(OCc1cccc(C(F)(F)F)c1)c1cc(S(=O)(=O)N2CCOCC2)ccc1F`, the cell number change turned out to be 25.3%.
As to `CN(C)CCNc1ncnc2ccccc12`, the cell number change is -3.71%. Also, the AC50 under setting [1] was 2.31 µM [falling, partial curve].
On to `O=C(c1ccc(S(=O)(=O)N2CCc3ccccc3C2)cc1)N1CCCCC1`, for which the cell number change was -5.81%. Also, the AC50 under setting [1] was 1.3 µM [falling, full curve].
`O=S(=O)(Nc1ccccc1N1CCOCC1)c1ccc(Cl)cc1`: the cell number change was -2.46%. Also, the AC50 under setting [1] is 0.0058 µM [rising, full curve, poor fit].
`CSCC[C@H](NC(=O)CC(C)(C)C)c1nc2ccccc2[nH]1`: the cell number change was determined as 60.2%. The AC50 under setting [2] is 2.31 µM [rising, full curve].
With `CCOC(=O)c1c(C)[nH]c(C(=O)OCC(=O)N(CC(C)C)c2c(N)n(Cc3ccccc3)c(=O)[nH]c2=O)c1C`, the AC50 is, setting by setting: under setting [2], 2.31 µM [rising, single point]; under setting [1], 4.61 µM [rising, single point].
Turning to `COc1ccc(C2NC(=S)NC(C)=C2C(=O)Nc2ccccn2)cc1` (stereo not drawn), the cell number change is -1.71%. Besides, under setting [1], the concentration at half-maximal activity (AC50) was 0.0058 µM [falling, full curve, poor fit].
For the molecule `CC(C)CN(C(=O)CSc1nc2ccccc2c(=O)n1C)C1CCS(=O)(=O)C1` (stereo not drawn), the cell number change is -4.62%. For the same molecule, under setting [2], the AC50 is 6.51 µM [falling, single point]. Also, the AC50 under setting [1] is 18.4 µM [rising, single point].
Regarding `CC(=O)CN1C(=O)NC(c2ccccc2)(c2ccccc2)C1=O`, the cell number change stood at 6.58%.
Consider `CCOC(=O)N1CCN(c2ccc(C(F)(F)F)cn2)CC1`, for which the AC50 under setting [1] was 0.116 µM [falling, full curve, poor fit].
For `CC(C)CC(=O)Nc1ccc2oc(-c3cccnc3)nc2c1`, the cell number change turned out to be 16.1%.
Turning to `O=C(NCC(=O)N1CCN(C(=O)c2ccco2)CC1)c1ccc(Cl)cc1`, the cell number change worked out at 31.3%. Further, under setting [2], the AC50 is 0.0164 µM [rising, full curve, poor fit]. The AC50 under setting [1] is 8.2 µM [rising, partial curve].
`CC1(c2ccc(OC(F)F)cc2)NC(=O)N(CC(=O)Nc2ccc(F)cc2)C1=O` (stereo not drawn): the cell number change turned out to be 13.5%. In addition, the AC50 under setting [1] was 0.651 µM [rising, partial curve, poor fit].
For the molecule `O=S(=O)(/N=C(/Nc1ccccn1)c1ccccc1)c1ccccc1`, the cell number change was 25.4%. Also, the AC50 under setting [1] is 32.6 µM [rising, partial curve].
For `O=C(CSc1nc(=O)n2ccccc2n1)N1CCCCCC1`, the AC50 under setting [2] is 6.51 µM [rising, single point].
Turning to `C/C(=N\NC(=O)CSc1nnc(C)s1)c1ccc(O)cc1`, the cell number change was -22.8%. Moreover, the AC50 under setting [2] was 0.651 µM [falling, full curve, poor fit]. Moreover, the concentration at half-maximal activity (AC50) under setting [1] was 2.31 µM [rising, single point].
For the molecule `Cc1cccc(C(=O)NCC(=O)NCC2COc3ccccc3O2)c1` (stereo not drawn), the AC50 under setting [2] was 1.16 µM [rising, partial curve].
For the molecule `COc1c(C)cc(C(=O)C2CCCN(C(=O)Cn3nc(C)nc3C)C2)cc1C` (stereo not drawn), the cell number change turned out to be 42.7%. Besides, under setting [2], the AC50 is 9.2 µM [rising, partial curve, poor fit]. For the same molecule, the AC50 under setting [1] was 18.4 µM [rising, single point].
Consider `COc1ccc(NC(=O)COC(=O)CC2CC3CCC2C3)c([N+](=O)[O-])c1` (stereo not drawn), for which the cell number change came to 27.6%. Further, the AC50 under setting [1] is 0.82 µM [rising, full curve, poor fit].
On to `CC(C)N1CCC(N2CCN(Cc3ccc(C#CC(C)(C)O)s3)CC2CCO)CC1` (stereo not drawn), for which the cell number change was -14.2%. In addition, under setting [1], the AC50 was 4.11 µM [falling, full curve].
As for `Oc1ccccc1CN1CCN(C(O)(c2ccccc2)c2ccccc2)CC1`, the cell number change is -8.41%.
Consider `Cc1cc(C)c2c(N)c(S(=O)(=O)Cc3ccccc3)sc2n1`, for which the cell number change turned out to be 5.78%. Besides, the AC50 under setting [1] was 0.731 µM [rising, single point].
As to `COc1ccc(C)c(Cn2c(-c3nonc3N)nc3ccccc32)c1`, the cell number change is -27.2%. In addition, the AC50 under setting [1] was 1.16 µM [rising, single point].
For the molecule `CCc1cc2c(N3CCCCC3)ncnc2s1`, the cell number change is -38.6%. In addition, the AC50 under setting [2] is 32.6 µM [falling, single point].
For `O=C(CCCN1C(=O)/C(=C/c2ccccc2Cl)SC1=S)NNC(=O)c1ccc(Cl)cc1`, the cell number change worked out at 19.6%. Moreover, under setting [1], the AC50 is 0.411 µM [falling, full curve, poor fit].
For `CCOC(=O)CSC1=C(C#N)C(c2ccc(C)cc2)C2=C(CCCC2=O)N1` (stereo not drawn), the cell number change was 5.62%. In addition, the AC50 under setting [1] was 0.731 µM [rising, full curve, poor fit].
